From publication PMC9859813 come the findings set out here.

Assay [1] has as its target T1, TRIM15 (tripartite motif family member TRIM15), endogenous (human (endogenous in Huh7 and Hep3B)) (UniProt Q9C019).
T1 sequence: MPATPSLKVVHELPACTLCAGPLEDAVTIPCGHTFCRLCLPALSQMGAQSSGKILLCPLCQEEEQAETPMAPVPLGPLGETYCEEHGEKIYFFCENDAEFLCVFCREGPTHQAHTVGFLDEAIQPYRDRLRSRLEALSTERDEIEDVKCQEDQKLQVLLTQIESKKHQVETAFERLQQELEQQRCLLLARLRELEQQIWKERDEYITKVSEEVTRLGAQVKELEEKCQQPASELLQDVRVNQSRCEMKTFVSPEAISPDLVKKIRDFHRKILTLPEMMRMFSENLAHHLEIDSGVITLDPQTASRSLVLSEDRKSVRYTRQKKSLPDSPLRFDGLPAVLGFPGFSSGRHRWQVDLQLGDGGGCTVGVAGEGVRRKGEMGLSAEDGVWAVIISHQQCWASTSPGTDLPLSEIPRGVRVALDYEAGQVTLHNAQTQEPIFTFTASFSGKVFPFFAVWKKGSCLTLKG
The assay is described as follows: co-IP; endogenous proteins; whole cell lysate of Huh7 and Hep3B in RIPA buffer; IgG, anti-TRIM15 or anti-LASP1 antibody with protein A + G beads, overnight in the cold room; Western blot. A general note: Immunoblotting shows a protein as a band on a membrane.

For assay [2], the target named is T2, GST-TRIM15 fusion protein (UniProt Q9C019).
T2 sequence: T1 sequence
The assay is described as follows: pull-down; GST fusion proteins immobilised on anti-GST magnetic beads, incubated with cell lysates (RIPA buffer) for 4 h; washed four times; Western blot; only the target purified.

These are yes or no findings as the source states them, for the method shown. Binding seen in cells or lysates may run through a third protein. Some binding calls cover weakened binding; strength is not graded here. For some assays here: Sequences can lack the tags named with a protein.

B1: LASP1, endogenous (protein, UniProt Q14847 1-261)
chain: MNPNCARCGKIVYPTEKVNCLDKFWHKACFHCETCKMTLNMKNYKGYEKKPYCNAHYPKQSFTMVADTPENLRLKQQSELQSQVRYKEEFEKNKGKGFSVVADTPELQRIKKTQDQISNIKYHEEFEKSRMGPSGGEGMEPERRDSQDGSSYRRPLEQQQPHHIPTSAPVYQQPQQQPVAQSYGGYKEPAAPVSIQRSAPGGGGKRYRAVYDYSAADEDEVSFQDGDTIVNVQQIDDGWMYGTVERTGDTGMLPANYVEAI
Regarding B1, the binding entry in assay [1] was “binds”.

B2: HA-LASP1 (protein, UniProt Q14847 1-261)
chain: B1 chain
B2: in assay [2], the binding result is “binds”.
